Assays:
[1] = 2 × 10^-4 M in ethanol; Ref [2] / Shah et al. 1990; cited from earlier work
[2] = Continuous wave operation with argon ion pump laser: power efficiency; details: CW, 5 watts all lines 457.9-514.5 nm
[3] = P-BF2 dyes dispersed in acrylic co-polymer (solid-state laser); details: polymer matrix, 5 parts methyl methacrylate and 1 part hydroxypropyl acrylate; PMDEP-BF2 10^-4 M
Source text: Any laser dye of the present invention may be substituted for the dye in any of the examples of that incorporated patent. The matrix generally includes solid polymeric host laser rods prepared using bulk polymerization of acrylic acid ester comonomers.

[4] = Power efficiency in Candela flashlamp dye laser; details: Candela LFRDL 20 linear flashlamp dye laser

## CCC1=C(C)C2=C(C)c3c(C)c(CC)c(C)n3[B-](F)(F)[N+]2=C1C [Compound 7c, 1,3,5,7,8-pentamethyl-2,6-diethylpyrromethene-BF2 complex]
[1]
  λlas: 570 nm
[2]
  power efficiency / power output: 37%
[3]
  power efficiency: 88%
[4]
  power efficiency of R-6G (relative): 173%

— patent publication US5446157A, “Boron difluoride compounds useful in photodynamic therapy and production of laser light” (priority 1993, dated 1995)
